Earlier results, collected in patent US20250248986A1, “ANTIFUNGAL DRUG INHALATION FORMULATIONS” (priority 2024, published 2025).
Like-named read-outs stand apart in the source and are kept apart here. At least one structure is not confirmed: it was looked up by name or label, or the drawing left a doubt.

Tested on: fungal spores

In the case of CCC(C)n1ncn(-c2ccc(N3CCN(c4ccc(OCC5COC(Cn6cncn6)(c6ccc(Cl)cc6Cl)O5)cc4)CC3)cc2)c1=O (racemic) [Itraconazole], the “concentration required to prevent germination of fungal spores” value (in the blood) is given as “greater than 0.5 μg/ml” and the “concentration required to prevent germination of fungal spores” value (in the lung tissue) is given as “greater than 0.5 μg/g”.
